For assay [1], the target named is T1, Follistatin-like protein 1 (FSTL1), Flag-tagged (UniProt Q12841).
T1 sequence: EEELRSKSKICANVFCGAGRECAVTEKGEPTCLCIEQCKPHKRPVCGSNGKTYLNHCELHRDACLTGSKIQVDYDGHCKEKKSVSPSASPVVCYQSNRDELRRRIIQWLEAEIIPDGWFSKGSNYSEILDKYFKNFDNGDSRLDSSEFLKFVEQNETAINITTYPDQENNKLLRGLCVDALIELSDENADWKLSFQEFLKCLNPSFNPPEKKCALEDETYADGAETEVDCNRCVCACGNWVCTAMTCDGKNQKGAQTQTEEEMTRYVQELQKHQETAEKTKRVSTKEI
Put plainly: co-IP.

Assay [2] concerns the target T2, Follistatin-like protein 1 (FSTL1), endogenous (human (endogenous in HCC cells)) (UniProt Q12841).
T2 sequence: T1 sequence
Put plainly: co-IP.

Results are given in words; binding and its absence hold for the method and conditions named. Binding seen in cells or lysates may run through a third protein. Some entries that bind do so weakly or less than the wild type. For some assays here: Tags and fused reporters may be left off the sequences shown.

B1: Programmed cell death 4 (PDCD4) (protein, UniProt Q53EL6 1-469)
chain: MDVENEQILNVNPADPDNLSDSLFSGDEENAGTEEIKNEINGNWISASSINEARINAKAKRRLRKNSSRDSGRGDSVSDSGSDALRSGLTVPTSPKGRLLDRRSRSGKGRGLPKKGGAGGKGVWGTPGQVYDVEEVDVKDPNYDDDQENCVYETVVLPLDERAFEKTLTPIIQEYFEHGDTNEVAEMLRDLNLGEMKSGVPVLAVSLALEGKASHREMTSKLLSDLCGTVMSTTDVEKSFDKLLKDLPELALDTPRAPQLVGQFIARAVGDGILCNTYIDSYKGTVDCVQARAALDKATVLLSMSKGGKRKDSVWGSGGGQQSVNHLVKEIDMLLKEYLLSGDISEAEHCLKELEVPHFHHELVYEAIIMVLESTGESTFKMILDLLKSLWKSSTITVDQMKRGYERIYNEIPDINLDVPHSYSVLERFVEECFQAGIISKQLRDLCPSRGRKRFVSEGDGGRLKPESY
Take B1: the binding result in assay [1] and in assay [2] was “binds” each time.

For the origin of these results see doi:10.1101/2025.04.30.651401.
